Assay results published in patent publication US20200392228A1.
Substitutions are numbered along the chain they refer to. These are yes or no findings as the source states them, for the method shown. Some results given as binding are weak or reduced against the parent protein; the word gives no strength.

The chains behind the UniProt entries cited, without tags or fusion partners. Where a name states a change or a piece, a line headed by the entry shows the natural chain unless it says otherwise. Residues count along the entry.
UniProt Q13477: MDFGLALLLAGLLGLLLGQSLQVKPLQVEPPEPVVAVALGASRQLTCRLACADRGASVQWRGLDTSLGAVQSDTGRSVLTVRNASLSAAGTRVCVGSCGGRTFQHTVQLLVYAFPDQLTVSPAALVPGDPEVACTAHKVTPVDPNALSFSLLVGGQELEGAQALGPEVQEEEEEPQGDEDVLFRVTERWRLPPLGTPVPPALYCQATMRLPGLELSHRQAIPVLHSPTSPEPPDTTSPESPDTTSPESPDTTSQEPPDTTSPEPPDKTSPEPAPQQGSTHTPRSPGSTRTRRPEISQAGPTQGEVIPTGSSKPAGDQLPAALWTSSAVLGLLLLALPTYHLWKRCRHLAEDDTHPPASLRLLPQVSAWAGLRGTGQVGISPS
human MAdCAM expressed on cells: residues 19-382 of Q13477
human MAdCAM protein: residues 19-317 of Q13477
UniProt Q61826: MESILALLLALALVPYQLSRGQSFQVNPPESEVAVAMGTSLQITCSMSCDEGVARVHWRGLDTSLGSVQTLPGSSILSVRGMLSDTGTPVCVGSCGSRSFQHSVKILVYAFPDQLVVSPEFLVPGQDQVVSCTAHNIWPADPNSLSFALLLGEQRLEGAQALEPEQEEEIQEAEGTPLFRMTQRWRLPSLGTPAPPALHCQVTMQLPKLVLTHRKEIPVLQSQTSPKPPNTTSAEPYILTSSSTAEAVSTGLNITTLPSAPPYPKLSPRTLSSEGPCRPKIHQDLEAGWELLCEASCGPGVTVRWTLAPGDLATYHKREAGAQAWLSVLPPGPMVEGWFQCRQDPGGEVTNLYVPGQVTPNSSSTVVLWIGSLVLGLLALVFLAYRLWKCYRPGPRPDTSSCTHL
mouse MAdCAM expressed on cells: residues 22-405 of Q61826
mouse MAdCAM protein: residues 22-365 of Q61826

B1: MAdCAM antibody Clone ID 4 of Table 7 (IgG) (antibody, V domains shown)
VH: QVQLVQSGAEVKKPGASVKVSCKASGGTFSSYAISWVRQAPGQGLEWMGSINPSGDTTSYAQKFQGRVTMTRDTSTSTVYMELSSLRSEDTAVYYCAKDKAQWLVGYFDYWGQGTLVTVSS
VL: DIQMTQSPSSLSASVGDRVTITCQASQDISNSLNWYQQKPGKAPKLLIYAASSLQSGVPSRFSGSGSGTDFTLTISSLQPEDFATYYCQQSYSSVITFGQGTKVEIK
B2: MAdCAM antibody Clone ID 5 of Table 7 (IgG) (antibody, V domains shown)
VH: EVQLLESGGGLVQPGGSLRLSCAASGFTFSSYWMHWVRQAPGKGLEWVSSISPGGSNIDYADSVKGRFTISRDNSKNTLYLQMNSLRAEDTAVYYCAREVQLSHYDYWGQGTLVTVSS
VL: B1 VL with Q24R, D28G, N34A, A50G, S91A, Y92N, S94F, V95P, I96F
B3: MAdCAM antibody Clone ID 11 of Table 7 (IgG) (antibody, V domains shown)
VH: EVQLLESGGGLVQPGGSLRLSCAASGFTFSDYYMNWVRQAPGKGLEWVSVIGESGGSTYYADSVKGRFTISRDNSKNTLYLQMNSLRAEDTAVYYCAADPVSRWPKHGGGDYWGQGTLVTVSS
VL: B1 VL with Q24R, D28G, N31S, N34A, S53T, S94T, V95P, I96W
B4: MAdCAM antibody Clone ID 7 of Table 7 (IgG) (antibody, V domains shown)
VH: EVQLLESGGGLVQPGGSLRLSCAASGFTFSDYQMSWVRQAPGKGLEWVAIISHADGGFKDYADSVKGRFTISRDNSKNTLYLQMNSLRAEDTAVYYCAKPYSSGWSAVYYFDYWGQGTLVTVSS
VL: DIQMTQSPSSLSASVGDRVTITCRASRGITNDLGWYQQKPGKAPKLLIYAASTLQSGVPSRFSGSGSGTDFTLTISSLQPEDFATYYCQQAYSFPWTFGQGTKVEIK
B5: MAdCAM antibody Clone ID 8 of Table 7 (IgG) (antibody, V domains shown)
VH: QVQLVQSGAEVKKPGASVKVSCKASGYTFTGYHIHWVRQAPGQGLEWMGIINPSGGSTIYAQKFQGRVTMTRDTSTSTVYMELSSLRSEDTAVYYCAKDWSSWYLGPFDYWGQGTLVTVSS
VL: B1 VL with Q24R, D28N, N31S, S93T, S94T, V95P, I96Y

The binders below were run against human MAdCAM protein (human) (UniProt Q13477) (assay: Octet).

binding, binds:
B1
B2
B3

These binders were tested against mouse MAdCAM protein (mouse) (UniProt Q61826) (assay: Octet).

binding, binds:
B1
B2
B4
B5
B3

Each binder was assayed against human MAdCAM expressed on cells (human) (UniProt Q13477) (assay: cell binding).

binding, binds:
B1
B2
B4
B5
B3

The binders below were run against mouse MAdCAM expressed on cells (mouse) (UniProt Q61826) (assay: cell binding).

binding, binds:
B1
B2
B4
B5
B3
